Results from patent US20220152158A1.
No constants are given. Whether binding was seen depends on the method and setting. In cells and extracts the contact can be indirect. Some results given as binding are weak or reduced against the parent protein; the word gives no strength.

Sequences of proteins named here, by UniProt entry; tags and fusion partners are left off. Residues count along the entry.
UniProt P99999, residues 2-105: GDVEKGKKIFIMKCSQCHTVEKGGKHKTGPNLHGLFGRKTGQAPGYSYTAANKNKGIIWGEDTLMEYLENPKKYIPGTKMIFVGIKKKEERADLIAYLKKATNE
UniProt O14727: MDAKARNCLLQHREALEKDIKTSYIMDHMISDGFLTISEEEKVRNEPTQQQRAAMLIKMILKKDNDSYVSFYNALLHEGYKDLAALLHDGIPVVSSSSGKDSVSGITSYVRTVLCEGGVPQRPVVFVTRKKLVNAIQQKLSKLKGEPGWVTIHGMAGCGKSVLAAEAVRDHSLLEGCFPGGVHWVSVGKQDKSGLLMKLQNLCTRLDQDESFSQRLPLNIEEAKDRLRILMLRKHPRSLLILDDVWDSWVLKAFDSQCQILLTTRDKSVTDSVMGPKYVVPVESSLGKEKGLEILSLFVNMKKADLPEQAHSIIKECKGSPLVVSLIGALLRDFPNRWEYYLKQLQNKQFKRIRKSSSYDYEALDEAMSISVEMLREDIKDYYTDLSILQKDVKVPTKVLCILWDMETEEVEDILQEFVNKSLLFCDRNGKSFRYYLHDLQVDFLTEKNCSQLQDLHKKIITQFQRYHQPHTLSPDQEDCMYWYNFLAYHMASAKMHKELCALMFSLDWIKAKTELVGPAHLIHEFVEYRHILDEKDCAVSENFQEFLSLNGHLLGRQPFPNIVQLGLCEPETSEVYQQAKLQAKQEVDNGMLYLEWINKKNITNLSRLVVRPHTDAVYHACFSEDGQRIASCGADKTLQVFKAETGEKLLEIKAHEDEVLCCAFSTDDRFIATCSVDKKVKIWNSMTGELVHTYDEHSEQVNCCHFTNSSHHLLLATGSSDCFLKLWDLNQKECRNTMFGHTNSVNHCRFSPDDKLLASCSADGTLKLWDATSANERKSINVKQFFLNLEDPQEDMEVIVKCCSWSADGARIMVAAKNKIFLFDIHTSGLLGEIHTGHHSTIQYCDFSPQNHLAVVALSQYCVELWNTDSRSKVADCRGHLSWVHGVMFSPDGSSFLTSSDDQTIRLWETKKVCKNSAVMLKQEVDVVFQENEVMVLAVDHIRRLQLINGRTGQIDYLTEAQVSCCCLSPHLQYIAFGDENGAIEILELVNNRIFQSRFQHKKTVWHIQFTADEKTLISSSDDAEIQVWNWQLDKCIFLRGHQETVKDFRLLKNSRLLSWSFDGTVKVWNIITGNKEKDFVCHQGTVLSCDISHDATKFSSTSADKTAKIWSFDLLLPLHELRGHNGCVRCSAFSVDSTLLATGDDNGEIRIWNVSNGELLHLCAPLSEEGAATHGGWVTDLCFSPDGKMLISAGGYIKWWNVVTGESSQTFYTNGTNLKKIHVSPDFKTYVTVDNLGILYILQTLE

Target: cytochrome C (human) (UniProt P99999)
Assay: in situ proximity ligation assay in HTR-8/SVneo cells in hypoxia, with and without 50 nM irisin

## APAF1 (from UniProt O14727 1-1248)
  binding: binds
